Values quoted from earlier work, collected in PMC8604667 (International Journal of Pharmaceutics: X, 2021).

Settings: ref Saetern et al., 2004

## CC[C@@]1(O)C(=O)OCc2c1cc1n(c2=O)Cc2cc3ccccc3nc2-1 [camptothecin, Camptothecin]
  aqueous solubility: approximately 4 μg/mL
